The source of these data is paper PMC4605297.

For some assays here: Weaker means in comparison with the reference protein, sequence or condition of that experiment. For some assays here: For at least one entry, the source does not settle the construct or the ends of the probe. For some assays here: At least one verdict was read from the data and is not stated in words by the source.

For series [1], the target named is SsOGT D27A (Sulfolobus solfataricus) (UniProt Q97VW7). Kind of series: competition with a labelled probe. To be noted: repair competition with BG-VG, 50 C; O6-methylguanine at position 26 of strand 1; EMSA: 0-25 uM protein, 0.2 uM probe, 37 C 10 min, 10 ul, buffer as ref. 17, 8% native PAGE in 1X TBE pH 8.3; recombinant protein; residues 1-151; protein details: N-terminal His (pQE31); letters put together from the description. (A gel shift assay detects complexes by their altered migration in electrophoresis.)

The target in series [2] is SsOGT C119A (Sulfolobus solfataricus) (UniProt Q97VW7). Put plainly: EMSA. The settings on record: comparable for all lesion positions, EMSA: 0-25 uM protein, 0.2 uM probe, 37 C 10 min, 10 ul, buffer as ref. 17, 8% native PAGE in 1X TBE pH 8.3, recombinant protein, residues 1-151, protein details: N-terminal His (pQE31).
In series [3] the target is SsOGT C119L (Sulfolobus solfataricus) (UniProt Q97VW7). Put plainly: EMSA. To be noted: slightly reduced affinity vs wild type; EMSA: 0-25 uM protein, 0.2 uM probe, 37 C 10 min, 10 ul, buffer as ref. 17, 8% native PAGE in 1X TBE pH 8.3; recombinant protein; residues 1-151; protein details: N-terminal His (pQE31); label: TAMRA, 5' of A+.
For series [4], the target named is SsOGT D27A (Sulfolobus solfataricus) (UniProt Q97VW7). Kind of series: EMSA. The settings on record: similar to wild type; EMSA: 0-25 uM protein, 0.2 uM probe, 37 C 10 min, 10 ul, buffer as ref. 17, 8% native PAGE in 1X TBE pH 8.3; recombinant protein; residues 1-151; protein details: N-terminal His (pQE31); label: TAMRA, 5' of A+.
For series [5], the target named is SsOGT C119F (Sulfolobus solfataricus) (UniProt Q97VW7). Put plainly: EMSA. The settings on record: slightly reduced affinity vs wild type; EMSA: 0-25 uM protein, 0.2 uM probe, 37 C 10 min, 10 ul, buffer as ref. 17, 8% native PAGE in 1X TBE pH 8.3; recombinant protein; residues 1-151; protein details: N-terminal His (pQE31); label: TAMRA, 5' of A+.
Series [6] has as its target SsOGT D27K (Sulfolobus solfataricus) (UniProt Q97VW7). Kind of series: EMSA. To be noted: slightly reduced vs wild type and D27A; EMSA: 0-25 uM protein, 0.2 uM probe, 37 C 10 min, 10 ul, buffer as ref. 17, 8% native PAGE in 1X TBE pH 8.3; recombinant protein; residues 1-151; protein details: N-terminal His (pQE31); label: TAMRA, 5' of A+.

Take “GGCAGTAGGCCTAGCATGACAATCTGCATTGGTGATCACGG / CGCTCATCCACAATGCAGATTGTCATGCTAGGCCTACTGCC [ds-Fwdm26]”: the concentration for half-maximal inhibition (IC50) (in general, the point on the concentration scale where inhibition reaches its midpoint) in series [1] was determined as 2.26 µM. For the same sequence, the binding result in series [2] (O6-methylguanine at position 26 of strand 1, letters put together from the description) is “binds”.
“GCAACAACGTTGCGCAAACTATTAACTGGCGAACTACTTA (double strand) [ds A+/D- (A+/A- in Fig. 3 legend)]”: the binding result in series [3] is on record as “binds more weakly”; in series [4] it was “binds”; in series [5], “binds more weakly”; in series [6], “binds more weakly”.
On to “GGCAGTAGGCCTAGCATGACAATCTGCATTGGTGATCACGG / CGCTCATCCACAATGCAGATTGTCATGCTAGGCCTACTGCC [ds-Fwdm40]”, for which the binding result in series [2] (O6-methylguanine at position 40 of strand 1) was “binds”.
“GGCAGTAGGCCTAGCATGACAATCTGCATTGGTGATCACGG / CGCTCATCCACAATGCAGATTGTCATGCTAGGCCTACTGCC [ds-Fwdm2]”: the binding result in series [2] (O6-methylguanine at position 2 of strand 1) is recorded as “binds”.
